Results deposited as PubChem BioAssay AID1259272 (Sanger Institute, 2017).
Screen: 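Kinase knock-downs lethal to colorectal cancer cells, with or without anchor drugs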 (primary screen). System: SW1116 human colorectal cancer cells. Knock-down reagent: siRNA pool against human genes. Conditions: anchor drugs BYL719 (1 µM), cetuximab (5 µg/ml) or trametinib (10 nM), or DMSO vehicle; exposure length not given. Read-out: 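Cell survival as a fraction of wells given a non-targeting pool, averaged over replicates; robust z-score without drug; synergy score for each of BYL719, cetuximab and trametinib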. Scale: viability z-score, no drug: higher = more cells remaining; strongly negative means essential gene; viability, no drug: higher = more viable cells; synergy score with BYL719 and synergy score with cetuximab and synergy score with trametinib: higher = stronger synthetic-lethal synergy with the drug. Hit rule: 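a robust z-score under -3 with siRNA and no drug marks the gene essential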. Calls: active = essential (knock-down alone); inactive = no change.
Shown is an unselected part of 794 reagents tested. 7 of them (0.88%) were called active. 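Essential calls reflect knock-down without drug only, not synergy with drugs; drug exposure length not given.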 Unmarked entries are inactive. No viability above 1 is reported: the scale is capped. Not given: the amount of reagent, the time to read-out.

target	viability z-score, no drug	viability, no drug (fraction of control)	synergy score with BYL719	synergy score with cetuximab	synergy score with trametinib
TYK2	-1.37	0.764	-0.142	-0.0518	0.102
TLK2	0.842	1	-0.0232	-0.0757	-0.168
MPP1	0.212	0.933	-0.139	-0.0578	0.119
PRKD3	0.432	0.956	-0.0372	0.0258	0.0357
FN1	0.314	0.944	0.00298	-0.1	0.156
PKMYT1	0.425	0.956	-0.0541	0.116	-0.00333
RPS6KB1	-1.69	0.731	-0.173	-0.0579	-0.0239
GRK2	0.842	1	0.0617	0.11	0.132
KALRN	0.842	1	0.0612	0.0795	0.0733
PRKG1	0.274	0.94	-0.0866	-0.0224	0.00228
DLG1	0.477	0.961	0.0812	0.157	0.101
SRPK1	0.842	1	0.0621	0.138	-0.0146
TESK2	0.842	1	-0.0788	-0.0116	0.0547
RBKS	0.842	1	-0.0624	0.107	0.138
ROCK1	0.842	1	0.0783	0.138	0.0455
AK5	0.842	1	-0.00522	0.0308	-0.0127
HIPK4	0.842	1	0.0275	-0.0619	-0.127
ROS1	-0.244	0.884	-0.0443	-0.0676	0.179
PMVK	0.842	1	0	-0.00983	0.151
GALK2	-0.531	0.854	-0.0354	-0.0459	0.15

Records listed so far whose gene name starts with T or t (3):
target	viability z-score, no drug	viability, no drug (fraction of control)	synergy score with BYL719	synergy score with cetuximab	synergy score with trametinib
TYK2	-1.37	0.764	-0.142	-0.0518	0.102
TLK2	0.842	1	-0.0232	-0.0757	-0.168
TESK2	0.842	1	-0.0788	-0.0116	0.0547
